Several values for one entry are separate records, joined by “and”; a condition that tells them apart may be missing. Equal values may be shown once. Among all 300,000 compounds or so, about 5,400 (1.8%) were called active. The shares of active, inactive and inconclusive entries below differ from those in the screen. The call rests on the fitted dose curve; tested in HEK293 cells. A potency beside an inconclusive call is a rough fit, not a confirmed value.
Assay: qHTS for inhibitors of binding or entry into cells for Marburg Virus
Conditions: Marburg virus pseudotyped entry inhibition, cell reporter; series mostly up to 37.8 µM
Potency means the concentration at half of the fitted maximal effect.

Row | Structure (SMILES) | Potency
1 | CC1CCCN(C(=O)C2CCCN(S(=O)(=O)c3cccc4nsnc34)C2)C1 (configuration not stated) | inactive
2 | CC(=O)Nc1ccc(NC(=O)COC(=O)C2CCC(C(C)(C)C)CC2)cc1 (configuration not stated) | inconclusive: 10 µM [activator, partial curve, poor fit]
3 | Cc1c(N2C(=O)CSC2c2ccc(F)cc2)c(=O)n(-c2ccccc2)n1C (configuration not stated) | inconclusive: 0.224 µM [inhibitor, full curve, poor fit]
4 | CC(C)(C)NC(=O)C(c1ccncc1)N(Cc1ccc(F)cc1)C(=O)c1ccc(-c2ccccc2)[nH]1 (configuration not stated) | inconclusive: 8.91 µM [inhibitor, partial curve, poor fit]
5 | Cc1ccc(NC(=S)NC(=O)c2ccc(F)cc2)cc1S(=O)(=O)Nc1ccccc1Cl | active: 1.12 µM
6 | OCCN1CCN(C2CCC(c3ccc(F)cc3)c3ccc(F)cc32)CC1 (configuration not stated) | active: 3.98 µM
7 | CCCOc1nc2c(c(=O)n(C)c(=O)n2C)n1C | inactive
8 | Cc1ccccc1Nc1oc(-c2ccccc2)nc1-c1ccccc1 | inconclusive: 2.66 µM [inhibitor, partial curve, poor fit]
9 | COc1ccc(OC)c(NS(=O)(=O)c2cccc3cccnc23)c1 | inconclusive: 1.12 µM [inhibitor, full curve, poor fit]
10 | COc1ccc(-n2nc([N+](=O)[O-])c(=NCCc3ccccc3)n2O)cc1 | inconclusive: 5.62 µM [activator, full curve]
11 | C=CCOc1ccc(/C=N/O)cc1Cl | inconclusive: 2.82 µM [activator, single point]
12 | O=C(Nc1cccnc1)c1cc(-c2cccc(Cl)c2)on1 | inactive and inconclusive: 15.8 µM [activator, single point]
13 | COc1ccc(N/C(C)=C2/C(=O)C(=O)N(CCO)C2c2ccc([N+](=O)[O-])cc2)cc1 (configuration not stated) | inactive
14 | O=C(c1ccc(Cl)c(S(=O)(=O)Nc2ccccc2C(=O)N2CCc3ccccc3C2)c1)N1CCc2ccccc2C1 | inactive and inconclusive: 35.5 µM [inhibitor, single point]
15 | Cc1c(C(=O)Nc2nccs2)oc2c(Cl)cccc12 | inactive
16 | Cc1cc(C)c(-n2c(SCc3nc4ccccc4s3)n[nH]c2=O)c(C)c1 | inconclusive: 3.16 µM [inhibitor, full curve, poor fit]
17 | COc1cccc(/C=N/NC(=O)c2cc3c(OC)cccc3[nH]2)c1OC | inactive
18 | COc1ccccc1-n1c(COc2ccccc2-c2ccccc2)nnc1SCC(=O)c1c(N)n(C)c(=O)n(C)c1=O | inconclusive: 0.891 µM [inhibitor, partial curve, poor fit]
19 | CCN(CC)c1ccc(/C=N/N2CCN(Cc3ccccc3Cl)CC2)cc1 | inconclusive: 20 µM [inhibitor, single point]
20 | CCOc1ccc(C(=O)Nc2nc3ccccc3[nH]2)cc1OCC | active: 11.2 µM
21 | COc1ccc(S(=O)(=O)N2CCC(C(=O)NC3CCCC3)CC2)cc1C | inconclusive: 35.5 µM [activator, single point]
22 | CC(=N\O)/C(CN(C)C)=N\O | inconclusive: 5.62 µM [inhibitor, single point]
23 | CCS(=O)(=O)c1ccc2oc(Nc3ccc(C(C)(C)C)cc3)nc2c1 | inactive

A different layout for some results above.

| Row | Structure (SMILES) | Potency |
| --- | --- | --- |
| 2 | CC(=O)Nc1ccc(NC(=O)COC(=O)C2CCC(C(C)(C)C)CC2)cc1 (configuration not stated) | inconclusive: 10 µM [activator, partial curve, poor fit] |
| 20 | CCOc1ccc(C(=O)Nc2nc3ccccc3[nH]2)cc1OCC | active: 11.2 µM |

Laid out differently: two of the compounds above.
Row,Structure (SMILES),Potency
3,Cc1c(N2C(=O)CSC2c2ccc(F)cc2)c(=O)n(-c2ccccc2)n1C (configuration not stated),"inconclusive: 0.224 µM [inhibitor, full curve, poor fit]"
7,CCCOc1nc2c(c(=O)n(C)c(=O)n2C)n1C,inactive

The list continues.

Row | Structure (SMILES) | Potency
24 | CCN1C(=O)/C(=C/c2nc3ccccc3c(=O)n2-c2ccc(C)cc2)c2ccccc21 | inconclusive: 0.282 µM [inhibitor, full curve, poor fit]
25 | CCN1C(=NCc2cccc(Cl)c2)N[C@@H](CCc2ccccc2)[C@H](C(=O)OC)[C@H]1C | inconclusive: 2.66 µM [activator, partial curve]
26 | c1ccc(-c2cn(-c3ccccc3)c3[n+]2CCS3)cc1 | inconclusive: 35.5 µM [inhibitor, single point]
27 | CSc1nnc(C)c(/C=C/NOCc2ccc(Cl)cc2)n1 | inconclusive: 3.66 µM [inhibitor, partial curve, poor fit]
28 | O=C(C1CCN(S(=O)(=O)c2ccc(Br)s2)CC1)N1CCN(c2ccccc2)CC1 | inconclusive: 14.1 µM [inhibitor, partial curve, poor fit]
29 | COc1ccc(C(=O)NNC(=S)NC(=O)c2cccnc2)cc1 | inconclusive: 25.1 µM [inhibitor, single point]
30 | Cc1ccc(CN2CCNC(=O)C2CC(=O)N2CCN(c3ncccn3)CC2)o1 (configuration not stated) | inactive
31 | O=C(NNS(=O)(=O)c1ccc(Cl)cc1)c1cnn(-c2ccccc2)c1-n1cccc1 | inconclusive: 0.562 µM [inhibitor, full curve]
32 | CCCCN(C(=O)Cc1ccc(S(=O)(=O)N2CCOCC2)s1)c1c(N)n(CCCC)c(=O)[nH]c1=O | inactive
33 | COc1cc(NC(=O)c2cc(C(C)C)on2)c(OC)cc1Cl | active: 14.6 µM
34 | CCOc1ccc(OCc2ccc(C(=O)NCc3ccncc3)o2)cc1 | inactive
35 | COc1cc(NC(=O)C2CCCO2)c(OC)cc1NC(=O)c1ccccc1 (configuration not stated) | inactive
36 | O=C(Oc1ccccc1N1CCOCC1)c1ccccc1 | inconclusive: 0.562 µM [inhibitor, full curve, poor fit]
37 | CCOC(=O)/C(=N/Nc1ccc(Br)cc1)N1CC(C)OC(C)C1 (configuration not stated) | inconclusive: 10 µM [inhibitor, partial curve, poor fit]
38 | Cn1nccc1C(=O)c1ccc(Cl)cc1 | inconclusive: 0.794 µM [activator, full curve, poor fit]
39 | COc1ccc(OC)c(CN2CCN(S(=O)(=O)c3ccc(NC(C)=O)cc3)CC2)c1 | inactive
40 | CCN(CC)S(=O)(=O)c1ccc(C(=O)N2CC(=O)Nc3ccc(F)cc3C2c2ccccc2)cc1 (configuration not stated) | inactive
41 | C#CCOc1c(Br)cc(/C=N\NC(=O)CN2CCOCC2)cc1OCC | inactive
42 | COC(=O)c1cccc(NC(=O)/C=C/c2cccc([N+](=O)[O-])c2)c1 | inconclusive: 0.146 µM [inhibitor, partial curve, poor fit]
43 | CC(NC(=S)Nc1ccc(Cl)cc1Cl)C(c1cccs1)N1CCCC1 (configuration not stated) | inconclusive: 29.1 µM [inhibitor, single point]
44 | CC(C)(C)C1CCc2c(sc(NC(=O)c3ccc(Cl)cc3)c2C(=O)NCc2ccco2)C1 (configuration not stated) | inactive
45 | COc1ccc(-c2[nH]c(-c3cccc(OC)c3)nc2SCC(=O)NC2CCCC2)cc1 | inconclusive: 18.4 µM [inhibitor, single point] and inconclusive: 12.6 µM [inhibitor, partial curve, poor fit]
46 | O=C(c1cc(-c2ccncc2)nc2ccccc12)N1CCN(c2ccc(N3CCOCC3)nn2)CC1 | active: 14.6 µM

Row | Structure (SMILES) | Potency
47 | Cc1ccc(C2=NC3(CCCC3)N=C2SCC(=O)Nc2ccc3c(c2)OCCO3)cc1 | inconclusive: 16.4 µM [inhibitor, single point]
48 | CN(Cc1ccccc1)Cc1nc2c(c(=O)n(C)c(=O)n2C)n1Cc1ccccc1Cl | inconclusive: 11.6 µM [inhibitor, partial curve, poor fit]
49 | CCN(CC)C(=O)C1CCN(S(=O)(=O)c2ccc3oc4ccccc4c3c2)CC1 | inconclusive: 29.1 µM [inhibitor, single point]
50 | CC(=O)N1N=C(c2ccc(C)o2)CC1c1ccc(Br)cc1 (configuration not stated) | inactive
51 | CC(=O)N[C@@H](Cc1c[nH]c2ccccc12)C(=O)NCc1ccccc1 | inconclusive: 35.5 µM [activator, single point]
52 | CCc1ccccc1NC(=O)C1(C)Cc2ccccc2C(=O)O1 (configuration not stated) | inactive
53 | O=c1c(Cl)c(NCc2ccccc2Cl)cnn1C12CC3CC(CC(C3)C1)C2 | inconclusive: 17.8 µM [inhibitor, single point]
54 | CC(=O)c1c(C)[nH]c(C(=O)Nc2nccs2)c1C | inconclusive: 8.91 µM [inhibitor, partial curve, poor fit]
55 | COc1ccc(C(N)CCc2ccco2)cc1 (configuration not stated) | inconclusive: 7.94 µM [inhibitor, partial curve, poor fit]
56 | CC(=O)Nc1cccc(NC(=O)C(=O)NCC(c2ccco2)N2CCc3ccccc3C2)c1 (configuration not stated) | inconclusive: 17.8 µM [inhibitor, partial curve, poor fit]
57 | NC(=O)c1c(NC(NC(=O)c2ccco2)C(=O)c2ccc(Cl)cc2)sc2c1CCCC2 (configuration not stated) | inactive and inconclusive: 16.4 µM [inhibitor, partial curve, poor fit]
58 | Cc1ccc(S(=O)(=O)N2CCOCC2)cc1C(=O)Nc1nc(-c2ccccn2)cs1 | inconclusive: 1.12 µM [inhibitor, partial curve, poor fit]
59 | Cc1cc(NC(=O)CSc2nnnn2-c2ccccc2)no1 | inactive
60 | Cc1cccc(C(=O)NC(=S)NNC(=O)c2ccccc2Cl)c1 | inconclusive: 22.4 µM [inhibitor, single point]
61 | COc1cc(C(=O)Nc2ccc(S(=O)(=O)NC(C)C)cc2)cc(OC)c1OC | inactive
62 | O=C(OCc1cn([C@@H]2C[C@H](c3ccc(Cl)cc3)N(CC3CCCCC3)C[C@@H]2O)nn1)c1ccccc1 | inconclusive: 12.5 µM [inhibitor, full curve, poor fit]
63 | Cn1cnnc1SCC(=O)Nc1ccc(C#N)cc1 | inactive
64 | O=C(NC(=S)Nc1nc(-c2ccc(Br)cc2)cs1)c1ccco1 | inconclusive: 6.31 µM [inhibitor, single point]
65 | CC/C(Cc1ccccc1)=N\NC(=O)c1cc(C)oc1C | inactive
66 | CCN1CCN(C(=O)/C=C/c2ccc(C)o2)CC1 | inactive
67 | CCN(CC)C(=O)C1CCCN(c2ccc([N+](=O)[O-])cc2/C=N/NC(=O)c2ccccc2)C1 (configuration not stated) | inconclusive: 3.16 µM [inhibitor, single point]
